Some results were stated once for a whole list of compounds, not compound by compound. Some ranges recur; such a range may be that of the whole group of compounds.
Tested on: patients with chronic thromboembolism and displaying secondary PHT
Assay: Pulmonary vascular resistance (delta PVR, right cardiac catheterization) in patients with chronic thromboembolism
Format: in vivo, human
Details: 7 patients; PGI i.v. 6 ng/kg/min, NO 20 ppm inhaled, sildenafil 50 mg oral
Protocol: FIG. 4: Result of measurement of the arterial oxygen partial pressure (PaO2) on 7 patients with chronic thromboembolism and displaying secondary PHT (pulmonary hypertension). The arterial oxygen partial pressure was improved by NO (inhaled) [20 ppm] and sildenafil (oral) [50 mg] by respectively 1.8% and 7.6%, whereas the oxygen saturation fell by 13% after administration of PGI (intravenous). In the same experiment, the vascular resistance was measured and determined as delta PVR by a right cardiac catheterization. The vascular resistance was reduced respectively by 25%, 19% and 21% after administration of PGI (intravenous) [6 ng/kg bodyweight/min], NO (inhaled) [20 ppm] and sildenafil (oral) [50 mg].
7 patients with CTEPH underwent a Swan-Ganz catheter investigation with measurement of the ventilation/perfusion (V/Q) distribution (using the multiple inert gas elimination technique (MIGET)). […] The following parameters were measured under baseline conditions: mean pulmonary arterial pressure (mPAP) 52.1 +/−3.3 mmHg, cardiac index (CI) 2.2+/−0.1 |* min^−1*m^−2, pulmonary vascular resistance index (PVRI) 1703.8+/−129.5 […], arterial pO2 72.5+/−3.3 mmHg and mixed venous oxygen saturation (SvO2) of 63.4+/−2.2%.

[N]=O [NO, nitric oxide]
vascular resistance (PVR), reduction: 20-25%
